Laboratory results taken from the supplement of paper PMC4683952.
Some of the results follow. Cut-off read from the data, not from the text of the source: active = 2 or more and inactive = the rest. Repeats in this data set agree poorly, so a single value says little.

What follows are molecules tested on Lgr5 (MarsCy1-Lgr5-EGFP, U2OS) (assay: cell-surface Lgr5 expression (SCi1 fluorescence, background-subtracted) relative to WT DMSO (fold of DMSO control); higher = more Lgr5 at the plasma membrane). Settings: U2OS MarsCy1-Lgr5-EGFP stable; treatment time: overnight; library: ActiProbe-5K (TimTec); 25 µM.

cell-surface Lgr5 expression, inactive:
COc1cc(F)c(S(=O)(=O)N2CCOc3ccccc32)cc1OC 1.29, CCn1cc(Cn2cc(N)cn2)c(C)n1 1.31, Fc1ccc(-c2nnc3n2N=C(c2ccc4c(c2)OCO4)CS3)cc1 1.2, O=[N+]([O-])c1ccc2c(c1)oc1ccc(S(=O)(=O)Nc3ccc4c(c3)OCCO4)cc12 0.82, Oc1ccc(Cl)cc1-c1cc(C(F)(F)C(F)F)on1 1.09, N#CC1=C(N)OC2=C(C(=O)CCC2)C1c1ccc(Cl)s1 (stereo not drawn) 1.15, CCCCNC(=O)OCCSC(=S)NC(C)(C)C 1.14, O=C1OC(c2ccccc2)=N/C1=C\c1coc2c(Cl)cc(Cl)cc2c1=O 1.47, CN(C)S(=O)(=O)Nc1ccc(Br)cc1 1, COc1cc(C2Nc3cccc4cccc(c34)N2)cc(OC)c1OC 1.1, NC(=O)c1sc2sc(C(N)=O)c(N)c2c1N 1.22, CCCC(C)C(=O)Nc1nnc(C(C)C)s1 (stereo not drawn) 1.38, Cn1c(=O)c2c(ncn2CC(O)CNC=O)n(C)c1=O (stereo not drawn) 1.23, CC1(C)O[C@H]2O[C@H]([C@H]3COC(C)(C)O3)[C@H](O)[C@H]2O1 0.978, COc1cc(OC)c2nc(N)sc2c1 0.979, CC(C)Cc1cc(C(=O)O)nc(=O)[nH]1 1.28, CCn1nccc1CN(C)S(=O)(=O)c1cccs1 1.31, Cc1nnc(SCC2=C(C(=O)O)N3C(=O)C(NC(=O)Cn4cnnn4)C3SC2)s1 (stereo not drawn) 1.02, O=c1cc2ncc(-c3n[nH]c(-c4cnc5cc(=O)[nH]n5c4)c3[N+](=O)[O-])cn2[nH]1 1.18, CC1=CCC2C3COC(O3)C(=O)C2C1 (stereo not drawn) 1.25, O=[N+]([O-])c1ccc(F)c(/N=C\c2ccc(Br)s2)c1 1.18, CCc1nc2sc3c(O)nc(=O)[nH]c3c2c(C(F)(F)F)c1C 1.32, O=C(O)c1[nH]nc([N+](=O)[O-])c1Cl 1.05, COC(=O)c1c(NS(C)(=O)=O)sc2c1CCCC2 1.12, O=[N+]([O-])c1cc(Br)c2nsnc2c1N1CCCCC1 1.28, Clc1nc(-c2ccccc2)nc2c1CCC2 0.989, Cc1nc2sc(C#N)c(N)c2c(C)c1C 0.92, CN1C(=O)/C(=C\C=C2\CCCN2C)N(C)C1=S 1.26, COc1ccc(S(=O)(=O)N(C)C)cc1 0.897, CN1C(=O)C(CC(N)=O)NC1=S (stereo not drawn) 1.16, C=CCNC(=S)N/N=C1/C2CN3CCN(C2)CC1(C)C3 1.06, Nc1nnnn1/N=C\c1cc(Br)ccc1O 1.25, C=CCN(CC=C)C(=O)Cc1cccs1 1.1, CN(C)/C=C1\C(=N)N(C)C(=O)N(C)C1=O 1.32, c1ccc(N2N=C3N(c4ccccc4)C2N3c2ccccc2)cc1 1.38, O=C1c2ccccc2-c2nc3ccccc3nc21 1.17, CN(C)c1cccc2c(S(N)(=O)=O)cccc12 1.28, O=[N+]([O-])c1cc(C(F)(F)F)c(Cl)cc1Cl 1.1, CCOC(=O)c1nonc1N 1.28, Cc1cc2c(c(O)c1-c1c(C)cc3c(c1O)/C(=C\NCSN)C(=O)C(O)=C3C(C)C)/C(=C/NCSN)C(=O)C(O)=C2C(C)C 1.37, Clc1ccc(/C=N\c2ccc(Cl)cn2)cc1 1.2, O=c1[nH]cnc2c1oc1ccc(Cl)cc12 1.43, c1ccc(-n2nnnc2SC2CCC3SC2CCC3Sc2nnnn2-c2ccccc2)cc1 (stereo not drawn) 1.1, c1cc(-c2nc(-c3ccncc3)c(-c3ccncc3)[nH]2)ccn1 0.941, C#CCn1c(COc2ccc(OC)cc2)nc2ccccc21 1.18, C#CCOc1c(Br)cc(/C=C2/SC(=S)NC2=O)cc1OC 1.31, c1ccc(CCNc2ccncn2)nc1 1.06, CN(C)c1ccc2sc(S)nc2c1 0.889, S=C(NC1c2ccccc2Oc2ccccc21)c1ccccc1 0.805, Nc1cc(SCc2cccnc2)nc(N)n1 1.04, O=c1c2c3c(sc2nc2n1CCCCC2)CCCCC3 1.22, Cc1nc(-c2n[nH]c(C)n2)n[nH]1 1.23, CCOC(=O)c1nsc2c(OCC)ncnc12 0.893, C[n+]1ccc(/C=C\c2cccs2)cc1 1.07, O=c1nc(O)c2sc3nc4c(cc3c2[nH]1)CCCC4 1.16, C=CCNC(=S)N/N=C/c1ccc(OC)c(CSC2=NC3C=CC=CC3S2)c1 (stereo not drawn) 0.627, O=S(=O)(Nc1ccc2c(c1)OCO2)c1ccc(Cl)cc1 0.924, O=c1oc(C23CC4CC(CC(C4)C2)C3)ns1 1.18, Brc1ccc(-c2noc(-c3cccs3)n2)o1 1.19, Cc1[nH]nc2c1C1(CCOCC1)C(C#N)=C(N)O2 1.05, Cc1cc(C)c(C#[N+][O-])c(C)c1 1.31, O=S1(=O)N=C(Nc2cccc3c(O)cccc23)c2ccccc21 1.08, C12([C@@H]([C@@]1(C#N)C#N)C(=O)C13CC4CC(C1)CC(C3)C4)CCCCCC2 1.12, CCOc1ccc(C2C(C#N)=C(N)OC3=C2C(=O)CC(C)(C)C3)cc1OCC (stereo not drawn) 1.29, Cc1ccc(C)c(/N=C\c2cc3c(cc2[N+](=O)[O-])OCO3)c1 1.01, C=CCn1c(S)nnc1-c1ccc(Cl)cc1Cl 1.41, Nc1ccc(Br)c2cccnc12 0.946, Cc1cc(NS(=O)(=O)c2ccc(Br)cc2)no1 1.17
